Results deposited as PubChem BioAssay AID1224830 (NIAID, 2016)
Assay: 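Regulators of TLR4 signalling towards TNF-alpha in macrophage-like cells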 (primary screen). Cells: human THP-1 monocytic leukaemia cells, TNF dual-luciferase reporter clone, PMA-differentiated to macrophage-like cells. Knock-down reagent: siRNA pool against human genes, 50 nM. Timing: LPS for 4 h, given about 3 days after siRNA transfection. Challenge: bacterial LPS (TLR4 ligand), 10 ng/ml. Measurement: 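TNF firefly reporter luminescence divided by renilla, normalised to the plate median, then turned into a robust z-score for each replicate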. Reading the numbers: TNF reporter robust z-score: higher = stronger TNF reporter response to LPS. Hit rule: 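a well is active when its z-score exceeds 2.8 or falls below -1.5; control wells carry no call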.
The whole screen tested about 18,000 reagents; below is a part drawn at random. About 2,900 of all reagents (16%) count as active. 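Calls are made per well; low scores hint the gene aids the LPS response, high scores that it dampens it.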 Unmarked entries are inactive. Repeated entries: four replicate wells of each siRNA pool. Reagent sequences are not shown.

Target gene	TNF reporter robust z-score
ASCC2 (GeneID 84164)	1.48
ASCC2 (GeneID 84164)	1.92
ASCC2 (GeneID 84164)	2.53
ASCC2 (GeneID 84164)	1.17
LHX5 (GeneID 64211)	-1.28
LHX5 (GeneID 64211)	-0.76
LHX5 (GeneID 64211)	-1.02
LHX5 (GeneID 64211)	-1.21
CAVIN2 (GeneID 8436)	0.63
CAVIN2 (GeneID 8436)	0.16
CAVIN2 (GeneID 8436)	0.94
CAVIN2 (GeneID 8436)	1.58
PRDX4 (GeneID 10549)	-1.19
PRDX4 (GeneID 10549)	-0.54
PRDX4 (GeneID 10549)	0.87
PRDX4 (GeneID 10549)	0.07
OR1Q1 (GeneID 158131)	-0.32
OR1Q1 (GeneID 158131)	-0.17
OR1Q1 (GeneID 158131)	-0.74
OR1Q1 (GeneID 158131)	0.16

A portion of the results above:
Target gene	TNF reporter robust z-score
CAVIN2 (GeneID 8436)	0.94
CAVIN2 (GeneID 8436)	1.58
PRDX4 (GeneID 10549)	-1.19
PRDX4 (GeneID 10549)	-0.54
PRDX4 (GeneID 10549)	0.87

Further records follow:
Target gene	TNF reporter robust z-score
MMP8 (GeneID 4317)	-1.06
MMP8 (GeneID 4317)	0.56
MMP8 (GeneID 4317)	-0.13
ADGRB2 (GeneID 576)	0
ADGRB2 (GeneID 576)	0.68
ADGRB2 (GeneID 576)	0.99
ADGRB2 (GeneID 576)	0.92
PGR (GeneID 5241)	2.53
PGR (GeneID 5241)	2.56
PGR (GeneID 5241)	1.77
PGR (GeneID 5241)	1.63
LHFPL7 (GeneID 255349)	-0.77
LHFPL7 (GeneID 255349)	-0.97
LHFPL7 (GeneID 255349)	-0.81
LHFPL7 (GeneID 255349)	-1.1
ASPG (GeneID 374569)	-0.11
ASPG (GeneID 374569)	0.72
ASPG (GeneID 374569)	-1.1
ASPG (GeneID 374569)	1.85
PIGG (GeneID 54872)	1.08
PIGG (GeneID 54872)	-0.34
PIGG (GeneID 54872)	-0.95
PIGG (GeneID 54872)	-0.21
HLA-G (GeneID 3135)	-0.74
HLA-G (GeneID 3135)	-1.03
HLA-G (GeneID 3135)	-0.47
HLA-G (GeneID 3135)	-0.53
